According to EP4772186A1, “USE AND COMPOSITION OF POSTBIOTIC OF LACTOBACILLUS PARACASEI ET-22” (Inner Mongolia Yili Industrial Group Co., Ltd., priority 2023, dated 2026):
At least one structure is not confirmed: it was looked up by name or label, or the drawing left a doubt.

What was measured:
[1] = system: multi-species biofilm; assay: biomass of multi-species biofilm, crystal violet staining; format: cell-based, halitosis subjects (saliva); details: compared with CK group; optical density; pure components 100 µg/ml; others from 1.0×10^9 CFU/ml; 37°C 10 hours
Experimental: The association between biofilm biomass and halitosis degree were analyzed by evaluating biofilm formation under intervention with ET-22 viable bacteria, heat-inactivated bacteria, lysate, NAD, 2-hydroxy-3-phenylpropionic acid and peptidoglycan. Test method included the following.
(§1) Lysate Group: 10 µl of saliva was added to a 96-well plate, followed by separate addition of ET-22 viable bacteria (1.0×10^9 CFU/ml), ET-22 heat-inactivated bacterial cells (obtained by inactivating viable bacteria at 1.0×10^9 CFU/ml), and lysate (obtained by inactivating and filtering viable bacteria at 1.0×10^9 CFU/ml), each at 100 µl. Then, 80 µl of SHI medium was added. The plate was placed in an anaerobic box and cultured anaerobically at 37°C for 10 hours. Six replicates were set for each group.
as §1, with “NAD” for “Lysate”, “heat-inactivating” for “inactivating”, “NAD (100 µg/ml),” for “lysate (obtained by inactivating and filtering viable bacteria at 1.0×10^9 CFU/ml),”, “group. […]” for “group.”
(5) The well plate was placed in a microplate reader and the biofilm biomass was measured at 600 nm.

[2] = system: biofilm; assay: confocal laser scanning microscopy (CLSM) of biofilm thickness; format: cell-based, halitosis subjects (saliva); details: compared with CK group; HA disc; pure components 100 µg/ml; others from 1.0×10^9 CFU/ml; 37°C 10 hours
Experimental: (§2) Lysate group: A HA disc was placed in a 96-well plate. 10 µl of saliva was added to the 96-well plate, followed by separate addition of ET-22 viable bacteria (1.0×10^9 CFU/ml), ET-22 heat-inactivated bacterial cells (obtained by inactivating viable bacteria at 1.0×10^9 CFU/ml), and lysate (obtained by inactivating and filtering viable bacteria at 1.0×10^9 CFU/ml), each at 10 µl. Then, 80 µl of SHI medium was added. The 96-well plate was placed in an anaerobic box and cultured anaerobically at 37°C for 10 hours.
as §2, with “NAD” for “Lysate”, “heat-inactivating” for “inactivating”, “NAD (100 µg/ml),” for “lysate (obtained by inactivating and filtering viable bacteria at 1.0×10^9 CFU/ml),”
2-hydroxy-3-phenylpropionic acid group: A HA disc was placed in a 96-well plate. 10 µl of saliva was added to the 96-well plate, followed by separate addition of ET-22 viable bacteria (1.0×10^9 CFU/ml), ET-22 heat-inactivated bacterial cells (obtained by heat-inactivating viable bacteria at 1.0×10^9 CFU/ml), and 2-hydroxy-3-phenylpropionic acid (100 µg/ml), each at 10 µl. Then, 80 µl of SHI medium was added. […]

## NC(=O)c1ccc[n+]([C@@H]2O[C@H](COP(=O)([O-])OP(=O)(O)OC[C@H]3O[C@@H](n4cnc5c(N)ncnc54)[C@H](O)[C@@H]3O)[C@@H](O)[C@H]2O)c1 [NAD, Nicotinamide adenine dinucleotide (NAD)]
[1]
  biofilm biomass: slight decrease
[2]
  biofilm thickness: not obvious
